Results from publication PMC6302171.
These are yes or no findings as the source states them, for the method shown. For part of these data: In cells and extracts the contact can be indirect. Some binding calls cover weakened binding; strength is not graded here.

The chains behind the UniProt entries cited, without tags or fusion partners. Where a name states a change or a piece, a line headed by the entry shows the natural chain unless it says otherwise. Residues count along the entry.
UniProt P07737, residues 2-140: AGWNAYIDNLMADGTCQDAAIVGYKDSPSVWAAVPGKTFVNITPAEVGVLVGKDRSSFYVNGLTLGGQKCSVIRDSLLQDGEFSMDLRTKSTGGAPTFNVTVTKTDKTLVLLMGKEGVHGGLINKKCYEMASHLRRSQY
UniProt Q9Y696: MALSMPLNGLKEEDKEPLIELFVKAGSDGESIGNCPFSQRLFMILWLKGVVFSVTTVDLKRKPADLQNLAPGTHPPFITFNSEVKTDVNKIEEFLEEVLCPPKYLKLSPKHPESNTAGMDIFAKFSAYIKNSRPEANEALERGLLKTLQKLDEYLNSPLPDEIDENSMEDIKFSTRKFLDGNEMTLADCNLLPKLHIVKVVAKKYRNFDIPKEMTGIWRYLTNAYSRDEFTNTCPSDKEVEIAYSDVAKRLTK

How the values were obtained:
GST–profilin-1 (human) [1] = target: GST–profilin-1 (human) (UniProt P07737); test: pull-down; total-cell lysate (1 mg) of HEK293 cells transfected with YFP–CLIC4 (WT or mutants) incubated with GST or GST–profilin-1; blot with anti-GFP; only the target purified
GST–CLIC4 WT = GST–CLIC4 WT (UniProt Q9Y696); test: pull-down; purified immobilised GST–CLIC4 (WT or C35A) incubated with profilin-1 for 2 h on ice, blot with anti-profilin-1; reciprocal with GST–profilin-1 and CLIC4 WT or C35A; GST alone as control; both purified
GST–profilin-1 (human) [2] = target: GST–profilin-1 (human) (UniProt P07737); test: as above

With “YFP–CLIC4 (WT) (from UniProt Q9Y696 1-251)” the binding (GST–profilin-1 (human) [1]) was “binds”.

For profilin-1 (from UniProt P07737 2-140), the binding (GST–CLIC4 WT) was “binds”.

“recombinant purified full-length CLIC4 (from UniProt Q9Y696 1-253)” was tested, and the binding (GST–profilin-1 (human) [2]) was “binds”.
